Results reported in paper PMC9344028.

Sequences of proteins named here, by UniProt entry; tags and fusion partners are left off. Residues count along the entry.
UniProt O95365, 370-500: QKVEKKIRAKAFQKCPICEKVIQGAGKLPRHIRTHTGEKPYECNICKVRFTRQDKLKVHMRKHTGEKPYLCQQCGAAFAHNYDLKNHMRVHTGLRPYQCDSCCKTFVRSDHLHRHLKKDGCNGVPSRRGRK

Biological target: FLAG-ZBTB7A ZF1-4 (UniProt O95365)
Assay: EMSA
Conditions: poly dIdC; EMSA: 10 mM HEPES pH 7.8, 50 mM KCl, 5 mM MgCl2, 1 mM EDTA, 5% glycerol, 1 mM DTT, 0.1 mg/mL BSA, 0.05 mg/mL poly dIdC, 4 C; protein in an extract; residues 370-500; protein details: FLAG; label: 5'-32P on forward strand

“TGGGGGCCCCTTCCCCACACTAT (double strand) [-200γ WT EMSA probe]”: binds.

Construct, isoform or probe ends are uncertain for at least one entry. At least one result comes from cells or an extract, where the contact may be indirect.
